The list shows a part of the results.
Compound: CC1Cc2ccccc2N1C(=O)C1CCCN(C1)C(=O)CCl (mixture of isomers) [TRIM25 ligand 11 (diastereomer mixture)]
Experiment: probe-labelled cysteine peptide fold change vs DMSO (competition) (log2 fold change); higher = less target engagement (more negative = stronger competition)
Conditions: THP-1, incubation time: 4 h
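Also: competitive chemoproteomic profiling in live THP-1 cells with an iodoacetamide desthiobiotin (IA-DTB) probe, comparing probe-labelled peptide intensities in compound-treated cells against DMSO-treated controls.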

Amino acid sequences for entries named in this document (tags omitted). A change or cut given only in a name is not applied to a line headed by its entry.
UniProt Q29RF7: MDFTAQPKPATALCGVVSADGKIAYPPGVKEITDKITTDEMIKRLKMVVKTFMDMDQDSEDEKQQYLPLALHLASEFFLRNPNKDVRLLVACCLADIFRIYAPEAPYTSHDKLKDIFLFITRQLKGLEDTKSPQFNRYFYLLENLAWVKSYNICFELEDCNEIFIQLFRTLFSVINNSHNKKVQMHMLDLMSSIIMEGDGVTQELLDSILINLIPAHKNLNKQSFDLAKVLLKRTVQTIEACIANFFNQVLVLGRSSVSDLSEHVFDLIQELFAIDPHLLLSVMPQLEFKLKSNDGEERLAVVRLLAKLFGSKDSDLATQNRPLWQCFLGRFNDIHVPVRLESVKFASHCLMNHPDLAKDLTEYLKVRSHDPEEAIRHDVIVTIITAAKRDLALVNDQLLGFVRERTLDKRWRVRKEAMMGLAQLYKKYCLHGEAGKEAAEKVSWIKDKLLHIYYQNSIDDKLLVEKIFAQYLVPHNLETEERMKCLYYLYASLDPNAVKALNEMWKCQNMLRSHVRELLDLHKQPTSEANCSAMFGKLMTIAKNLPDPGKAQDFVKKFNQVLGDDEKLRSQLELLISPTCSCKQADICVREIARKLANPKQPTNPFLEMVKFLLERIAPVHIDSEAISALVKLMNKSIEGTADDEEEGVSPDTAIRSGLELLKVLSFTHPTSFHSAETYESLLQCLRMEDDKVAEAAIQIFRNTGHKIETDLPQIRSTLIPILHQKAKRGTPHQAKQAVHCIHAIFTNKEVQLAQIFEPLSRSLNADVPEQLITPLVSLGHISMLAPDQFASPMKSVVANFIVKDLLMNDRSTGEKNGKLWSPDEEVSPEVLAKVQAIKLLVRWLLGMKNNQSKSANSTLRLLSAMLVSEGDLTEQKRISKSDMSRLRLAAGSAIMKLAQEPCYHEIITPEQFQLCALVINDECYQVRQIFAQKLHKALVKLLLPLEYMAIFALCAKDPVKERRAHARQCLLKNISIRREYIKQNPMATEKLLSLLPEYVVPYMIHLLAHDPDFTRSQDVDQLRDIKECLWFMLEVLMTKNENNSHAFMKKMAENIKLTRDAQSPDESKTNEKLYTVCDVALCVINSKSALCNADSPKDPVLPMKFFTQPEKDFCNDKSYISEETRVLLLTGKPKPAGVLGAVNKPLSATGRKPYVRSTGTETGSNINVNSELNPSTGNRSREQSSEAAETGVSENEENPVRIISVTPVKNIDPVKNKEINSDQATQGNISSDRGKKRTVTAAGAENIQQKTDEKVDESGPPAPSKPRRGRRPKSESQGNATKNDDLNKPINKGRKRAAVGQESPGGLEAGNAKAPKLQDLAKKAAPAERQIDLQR
UniProt P09874, whole entry, looked up: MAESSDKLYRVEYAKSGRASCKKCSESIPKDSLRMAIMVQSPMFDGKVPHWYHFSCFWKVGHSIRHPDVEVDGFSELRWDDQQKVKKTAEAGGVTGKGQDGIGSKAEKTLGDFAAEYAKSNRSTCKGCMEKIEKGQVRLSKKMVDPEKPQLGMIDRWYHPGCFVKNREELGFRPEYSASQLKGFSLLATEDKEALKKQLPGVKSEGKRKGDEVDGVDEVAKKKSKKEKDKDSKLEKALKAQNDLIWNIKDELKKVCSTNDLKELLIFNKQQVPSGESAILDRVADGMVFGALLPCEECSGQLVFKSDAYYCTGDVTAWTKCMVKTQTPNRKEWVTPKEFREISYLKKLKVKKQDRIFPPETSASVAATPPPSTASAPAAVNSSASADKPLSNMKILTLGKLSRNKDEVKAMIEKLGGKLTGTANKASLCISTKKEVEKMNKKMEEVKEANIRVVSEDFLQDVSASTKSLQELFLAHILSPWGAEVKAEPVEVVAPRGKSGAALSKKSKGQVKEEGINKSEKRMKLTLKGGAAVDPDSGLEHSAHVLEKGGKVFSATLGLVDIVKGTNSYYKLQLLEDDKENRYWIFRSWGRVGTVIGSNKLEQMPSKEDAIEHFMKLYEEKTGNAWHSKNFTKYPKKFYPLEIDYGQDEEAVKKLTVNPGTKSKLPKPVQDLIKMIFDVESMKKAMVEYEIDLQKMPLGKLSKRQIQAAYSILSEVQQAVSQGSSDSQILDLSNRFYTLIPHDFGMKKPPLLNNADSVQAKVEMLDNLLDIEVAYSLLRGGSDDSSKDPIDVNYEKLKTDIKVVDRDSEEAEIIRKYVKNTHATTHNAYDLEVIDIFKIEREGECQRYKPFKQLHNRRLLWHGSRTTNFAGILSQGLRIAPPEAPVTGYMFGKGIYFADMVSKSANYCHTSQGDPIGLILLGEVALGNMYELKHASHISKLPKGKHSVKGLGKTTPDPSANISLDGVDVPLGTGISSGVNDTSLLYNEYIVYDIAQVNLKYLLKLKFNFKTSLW
UniProt Q9HBH1: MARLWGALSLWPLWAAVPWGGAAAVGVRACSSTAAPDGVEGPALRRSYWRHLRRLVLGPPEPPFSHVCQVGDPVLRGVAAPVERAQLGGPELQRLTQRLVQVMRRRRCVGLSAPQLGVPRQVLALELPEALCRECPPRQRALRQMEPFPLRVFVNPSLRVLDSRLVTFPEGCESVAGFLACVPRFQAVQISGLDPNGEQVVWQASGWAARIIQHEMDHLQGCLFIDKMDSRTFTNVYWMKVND
UniProt P57721, whole entry, looked up: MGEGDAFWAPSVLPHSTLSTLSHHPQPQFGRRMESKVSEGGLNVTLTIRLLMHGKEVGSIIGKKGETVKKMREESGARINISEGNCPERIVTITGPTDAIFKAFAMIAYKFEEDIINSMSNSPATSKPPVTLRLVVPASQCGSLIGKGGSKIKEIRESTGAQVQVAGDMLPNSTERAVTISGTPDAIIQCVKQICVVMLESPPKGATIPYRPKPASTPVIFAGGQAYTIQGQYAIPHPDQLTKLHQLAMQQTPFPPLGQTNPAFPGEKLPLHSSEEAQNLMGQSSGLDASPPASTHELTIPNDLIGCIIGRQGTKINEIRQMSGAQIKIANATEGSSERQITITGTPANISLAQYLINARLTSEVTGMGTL
UniProt Q53EL6: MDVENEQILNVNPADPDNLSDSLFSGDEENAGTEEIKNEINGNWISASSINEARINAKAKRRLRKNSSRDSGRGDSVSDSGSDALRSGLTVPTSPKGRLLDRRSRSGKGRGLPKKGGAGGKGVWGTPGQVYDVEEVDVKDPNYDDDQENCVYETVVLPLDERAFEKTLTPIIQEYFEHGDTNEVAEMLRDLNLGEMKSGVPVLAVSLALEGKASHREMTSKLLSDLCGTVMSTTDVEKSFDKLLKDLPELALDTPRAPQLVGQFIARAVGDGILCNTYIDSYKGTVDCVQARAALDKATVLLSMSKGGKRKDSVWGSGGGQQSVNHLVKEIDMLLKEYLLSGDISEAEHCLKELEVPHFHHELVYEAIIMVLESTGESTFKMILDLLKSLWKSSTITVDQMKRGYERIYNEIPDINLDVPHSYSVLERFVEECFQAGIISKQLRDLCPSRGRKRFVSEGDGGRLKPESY
UniProt P30101, whole entry, looked up: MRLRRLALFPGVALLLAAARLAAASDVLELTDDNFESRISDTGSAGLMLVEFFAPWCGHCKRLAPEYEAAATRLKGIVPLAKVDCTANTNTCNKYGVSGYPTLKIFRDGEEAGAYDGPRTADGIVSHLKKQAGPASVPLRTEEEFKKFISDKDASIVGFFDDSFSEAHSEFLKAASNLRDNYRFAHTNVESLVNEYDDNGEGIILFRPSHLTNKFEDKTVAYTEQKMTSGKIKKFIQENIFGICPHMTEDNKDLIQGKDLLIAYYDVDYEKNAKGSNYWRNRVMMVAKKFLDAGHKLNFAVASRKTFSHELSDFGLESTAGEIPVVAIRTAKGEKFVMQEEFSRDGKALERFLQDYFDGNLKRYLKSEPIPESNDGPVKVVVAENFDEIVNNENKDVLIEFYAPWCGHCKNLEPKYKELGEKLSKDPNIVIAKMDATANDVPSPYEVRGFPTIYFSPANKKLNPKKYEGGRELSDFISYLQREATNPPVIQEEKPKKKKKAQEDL

Target | probe-labelled cysteine peptide fold change (10 µM) | probe-labelled cysteine peptide fold change (50 µM)
PDS5A_Q29RF7_1079_LYTVCDVALCVINSK (UniProt Q29RF7) | -0.0956 | 0.000329
PARP1_P09874_295_VADGMVFGALLPCEECSGQLVFK (UniProt P09874) | -0.195 | 0.0831
PDF_Q9HBH1_172+181_LVTFPEGCESVAGFLACVPR (UniProt Q9HBH1) | 0.0549 | 0.0225
PCMT1_P22061_43_CNPYMDSPQSIGFQATISAPHMHAYALELLFDQLHEGAK (UniProt P22061) | -0.0924 | -0.303
PCBP3_P57721_141_LVVPASQCGSLIGK (UniProt P57721) | -0.0567 | -0.121
PDCD4_Q53EL6_350_EYLLSGDISEAEHCLK (UniProt Q53EL6) | 0.161 | 0.0604
PDIA3_P30101_57_ISDTGSAGLMLVEFFAPWCGHCK (UniProt P30101) | -0.0542 | -0.235
